The numbers were not newly measured in patent US6126917A, “Epidermal growth factor receptor binding compounds for positron emission tomography” (Hadasit Medical Research Services and Development Ltd., priority 1999, dated 2000), which cites them from elsewhere.

For this data set, the system named is EGFR-TK. Particulars: normal mice, cited from earlier work.

In the case of `COc1cc2ncnc(Nc3cccc(Br)c3)c2cc1OC` [PD 153035], the uptake specificity result (PD 153035 labeled with 11C in the 7-methoxy position) is “uptake specificity could not be demonstrated”. Further, the “effect of enzyme-blocking dose of PD 153035 on tracer uptake” value (tracer: PD 153035 labeled with 11C in 7-methoxy position) is given as “caused an increase in tracer uptake in the tissues studied”.
